This is an account of results in article PMC10981688.

Sequences of proteins named here, by UniProt entry; tags and fusion partners are left off. Residues count along the entry.
UniProt Q01518: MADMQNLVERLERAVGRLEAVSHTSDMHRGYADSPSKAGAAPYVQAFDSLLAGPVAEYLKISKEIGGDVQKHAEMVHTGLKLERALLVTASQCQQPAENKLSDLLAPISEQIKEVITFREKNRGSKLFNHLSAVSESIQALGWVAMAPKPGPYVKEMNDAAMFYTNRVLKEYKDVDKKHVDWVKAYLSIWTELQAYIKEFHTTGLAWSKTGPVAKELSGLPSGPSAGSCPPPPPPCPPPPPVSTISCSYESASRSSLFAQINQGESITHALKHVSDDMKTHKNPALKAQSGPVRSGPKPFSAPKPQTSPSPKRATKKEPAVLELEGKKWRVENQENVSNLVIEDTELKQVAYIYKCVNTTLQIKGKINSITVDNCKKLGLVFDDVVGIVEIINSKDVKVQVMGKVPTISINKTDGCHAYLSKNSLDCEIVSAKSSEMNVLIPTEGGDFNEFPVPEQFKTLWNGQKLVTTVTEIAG
UniProt O00206, residues 24-839: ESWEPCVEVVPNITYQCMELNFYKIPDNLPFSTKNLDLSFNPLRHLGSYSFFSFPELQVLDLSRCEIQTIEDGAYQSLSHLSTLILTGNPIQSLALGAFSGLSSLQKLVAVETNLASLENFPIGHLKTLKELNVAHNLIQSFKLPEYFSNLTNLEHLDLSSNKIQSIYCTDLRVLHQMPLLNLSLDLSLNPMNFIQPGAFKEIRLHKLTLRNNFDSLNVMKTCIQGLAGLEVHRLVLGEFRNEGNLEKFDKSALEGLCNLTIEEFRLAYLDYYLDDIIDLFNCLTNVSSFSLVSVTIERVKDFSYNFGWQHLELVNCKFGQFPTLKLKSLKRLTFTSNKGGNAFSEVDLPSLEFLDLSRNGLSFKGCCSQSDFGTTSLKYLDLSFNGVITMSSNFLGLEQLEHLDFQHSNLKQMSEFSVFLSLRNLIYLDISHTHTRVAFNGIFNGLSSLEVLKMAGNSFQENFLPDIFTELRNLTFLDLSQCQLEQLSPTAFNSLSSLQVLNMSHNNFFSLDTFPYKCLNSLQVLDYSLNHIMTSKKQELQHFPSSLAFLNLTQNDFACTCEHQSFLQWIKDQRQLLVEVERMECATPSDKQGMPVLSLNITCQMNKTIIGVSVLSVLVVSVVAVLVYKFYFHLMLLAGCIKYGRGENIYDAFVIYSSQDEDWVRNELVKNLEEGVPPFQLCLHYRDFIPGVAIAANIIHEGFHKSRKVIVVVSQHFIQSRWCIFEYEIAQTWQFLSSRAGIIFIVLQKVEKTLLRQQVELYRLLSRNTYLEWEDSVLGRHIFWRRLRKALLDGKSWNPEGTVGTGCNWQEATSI

Experiment [1] has as its target CAP1, endogenous in THP-1 monocytes (human (endogenous in THP-1)) (UniProt Q01518). The experiment is described as follows: co-IP; immunoprecipitation of endogenous proteins from THP-1 lysates (CAP1 and PCSK9 antibodies; CAP1, Syk and PKCδ), immunoblot. On the technique in general: In western blotting, separated proteins are transferred to a membrane and probed.
Experiment [2] has as its target TLR4, endogenous in THP-1 monocytes (human (endogenous in THP-1)) (UniProt O00206). The experiment is described as follows: proximity ligation; Duolink proximity ligation assay in THP-1 cells with primary antibodies against PCSK9, CAP1 or TLR4; cells treated with CTRL, TLR4, LOX1 or CAP1 siRNA; red dots per cell counted.
In experiment [3] the target is CAP1, endogenous in THP-1 monocytes (human (endogenous in THP-1)) (UniProt Q01518). Described as above.
Experiment [4] deals with CAP1-hFc, a fusion of human CAP1 with the Fc region of human immunoglobulin (human) (UniProt Q01518). The experiment is described as follows: ELISA; competitive ELISA; 96-well plate coated with human Fc-CAP1, 160 µM 6x His-PCSK9 with 10 or 50 µM IgG, evolocumab or hFc-CAP1, 2 h at room temperature; detection with anti-6x His-HRP; both purified.

These are yes or no findings as the source states them, for the method shown. Binding can be weak; no strength is given. For some of these results: Binding seen in cells or lysates may run through a third protein.

For “PCSK9, endogenous in THP-1 monocytes (from UniProt Q8NBP7)”, the binding result in experiment [1], in experiment [2] and in experiment [3] was “binds” in each case.

With “recombinant human PCSK9 with 6x His tag (proprotein convertase subtilisin/kexin type-9) (from UniProt Q8NBP7)”, in experiment [4], the binding result is “binds”.
